Results are given in words; binding and its absence hold for the method and conditions named. Some entries that bind do so weakly or less than the wild type. Tags and fused reporters may be left off the sequences shown.
B1: bATF2-PhaP (bZIP domain of ATF2 fused to PhaP) (domain or fragment)
chain: GRRRRAANEDPDEKRRKFLERNRAAASRCRQKRKVWVQSLEKKAEDLSSLNGQLQSEVTLLRNEVAQLKQLLLAH

Target: DBD-bJun (DNA binding domain of PhaR fused to the bZIP domain of Jun)
Assay: two-hybrid; bacterial two-hybrid in E. coli XL1-Blue: DBD (PhaR 1-106)-bait on the phaP promoter, prey-PhaP on PHB granules made in vivo (phaCAB), lacZ reporter under the phaP promoter, read as beta-galactosidase activity; LB with 20 g/L glucose, 14 h, 37°C, 200 rpm

| Binder | binding |
| --- | --- |
| CGGRIARLEEKVKTLKAQNSELASTANMLREQVAQLKQKVMNY (domain or fragment) [bJun-PhaP (bZIP domain of Jun fused to PhaP)] | binds |
| B1 | binds |
